No constants are given. Whether binding was seen depends on the method and setting. Some binding calls cover weakened binding; strength is not graded here.
Biological target: Escherichia coli pseudouridine kinase PsuK (E. coli BL21 (DE3)) (UniProt P30235)
Assay: crystal structure; space group P6_(3)22, one molecule in the asymmetric unit; the homodimer is formed with the adjacent asymmetric unit (crystallographic symmetry); apo, with pseudouridine and with N1-methyl-pseudouridine; both purified

binding: binds
B1: Escherichia coli pseudouridine kinase PsuK (enzyme, E. coli BL21 (DE3), UniProt P30235 1-313, looked up)
chain: MREKDYVVIIGSANIDVAGYSHESLNYADSNPGKIKFTPGGVGRNIAQNLALLGNKAWLLSAVGSDFYGQSLLTQTNQSGVYVDKCLIVPGENTSSYLSLLDNTGEMLVAINDMNISNAITAEYLAQHGEFIQRAKVIVADCNISEEALAWILDNAANVPVFVDPVSAWKCVKVRDRLNQIHTLKPNRLEAETLSGIALSGREDVAKVAAWFHQHGLNRLVLSMGGDGVYYSDISGESGWSAPIKTNVINVTGAGDAMMAGLASCWVDGMPFAESVRFAQGCSSMALSCEYTNNPDLSIANVISLVENAECLN
notes: E. coli pseudouridine kinase PsuK (YeiC), amplified from the E. coli BL21 (DE3) genome, Uniprot ID A0A140N873, aa 1-313 (313 residues, calculated 33.6 kDa); modelled from Arg2 to Asn308 in the apo structure; Cloned by BamHI and XhoI into a modified pET-28a with an Ulp1 cleavage site; also called EcPsuK; YeiC; source: E. coli BL21 (DE3), purified (Ni-NTA, Ulp1 cleavage, second Ni-NTA, Superdex …)
